From patent US20120263948A1, “REMOVABLE WATER-DISPERSIBLE ACRYLIC PRESSURE-SENSITIVE ADHESIVE COMPOSITION AND PRESSURE-SENSITIVE ADHESIVE SHEET” (NITTO DENKO CORPORATION, priority 2011, published 2012)
Some of these results come from one statement about several compounds together.

Test: Solubility of crosslinking agent in water
Type: physicochemical
Settings: 25° C.

Row | Compound | Solubility in water
1 | C1CC(CN(CC2CO2)CC2CO2)CC(CN(CC2CO2)CC2CO2)C1 (centres unmarked) [TETRAD-C, 1,3-bis(N,N-diglycidylaminomethyl)cyclohexane] | ≤ 2 parts by weight per 100 parts
2 | c1cc(CN(CC2CO2)CC2CO2)cc(CN(CC2CO2)CC2CO2)c1 (centres unmarked) [TETRAD-X, 1,3-bis(N,N-diglycidylaminomethyl)benzene] | ≤ 2 parts by weight per 100 parts
